Laboratory results from patent US6593074B2, “Silver halide photographic emulsion, producing method of the same, and silver halide photographic material containing the same” (Fuji Photo Film Co., Ltd., priority 2000, dated 2003).

Test: Evaluation of dyeing (dye transferred via automatic processor roller to photographic paper)
Set-up: key: grade 5 means best, i.e., the generation of dyeing was least; grade 1 means worst, i.e., the generation of dyeing was most
Conditions: five grades
Procedure: Dyeing is a failure that when a photographic paper is processed after processing a photographic film, the dye transferred to the transporting roller of the automatic processor from the film adheres to the photographic paper.
The above-obtained sample of a large size (50.8 cm×61 cm) was processed using automatic processor FG9601S (produced by Fuji Photo Film Co., Ltd.) filled with developing solution ND-1 (mother solution/water: 2/1, 35° C., 30 seconds), fixing solution NF-1 (mother solution/water: 1/2, 34° C.), and washing water (25° C.). Three large size sheets were processed with the interval of 1 minute with replenishing 50 ml of the working solution per one sheet, and 10 minutes after that, three large size sheets of scanner paper PR-H100WP (manufactured by Fuji Photo Film Co., Ltd.) were processed with the interval of 1 minute. This procedure was repeated three times and dyeing of the entire surface of the emulsion layer side and the back side and the end part of the processed sheet was compared and confirmed.
Dyeing of the obtained samples was evaluated by five grade (grade 5 means best, i.e., the generation of dyeing was least, and grade 1 means worst, i.e., the generation of dyeing was most).

| SMILES | Dyeing (dye added as methanol solution) | Dyeing (dye added as water solution) |
| --- | --- | --- |
| CCN(CC)CC.CCN(CC)CC.Cc1cc2c(cc1C)N(CCCS(=O)(=O)O)C(=CC=C1SC(=S)N(CC(=O)O)C1=O)S2 [Dye (6)] | 5 |  |
| COc1cc2sc(C=c3sc(=CC=C4SC=C(C)N4CCCCS(=O)(=O)[O-])c(=O)n3CC(=O)[O-])[n+](CCCCS(=O)(=O)[O-])c2cc1OC.[Na+].[Na+] [SS-7, reference compound] | 1 |  |
| CC(=CC=C1Sc2cc(C)ccc2N1CCCCS(=O)(=O)[O-])C=C1SC(=S)N(CC(=O)[O-])C1=O.[Na+].[Na+] [SS-4, reference compound] | 1 |  |
| CC(=CC=C1Oc2ccccc2N1CCS(=O)(=O)[O-])C=C1SC(=S)N(CC(=O)[O-])C1=O.[Na+].[Na+] [SS-5, reference compound] | 1 |  |
| O=C([O-])CN1C(=O)C(=C2Oc3ccc(Cl)cc3N2CCCCS(=O)(=O)[O-])SC1=S.[K+].[K+] [SS-1, reference compound] | 1 | 1 |
| CC(=CC=C1Oc2ccccc2N1CCS(=O)(=O)O)C=C1SC(=S)N(CC(=O)O)C1=O.CCN(CC)CC.CCN(CC)CC [Dye (12)] | 5 |  |
| CCN(CC)CC.CCN(CC)CC.O=C(O)CN1C(=O)C(=C2Oc3ccc(Cl)cc3N2CCCCS(=O)(=O)O)SC1=S [Dye (1)] | 5 |  |
